{"source": "PubChem BioAssay AID1259308, NCATS | 2017", "aim": "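Genes whose loss raises luciferase production in HEK293 cells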 (primary screen)", "cells": "human HEK293 embryonic kidney cells stably expressing firefly luciferase (HEK-CMV-Luc2-Hygro)", "knock-down reagent": "single siRNA against human genes, 0.8 pmol siRNA per well", "timing": "72 h", "measured": "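Luciferase light (ONE-Glo) measured on one replicate plate set and viability (CellTiter-Glo) on the other, scaled to a negative control siRNA, with robust z-scores and luciferase per cell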", "reading the numbers": "total luciferase, z-score and total luciferase, % of control: higher = more reporter protein produced", "active means": "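Active when the median/MAD z-score for overall luciferase is greater than 3; a gene was taken forward for validation with new siRNAs if at least two of its three siRNAs passed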", "calls": "active = raised luciferase; inactive = no rise", "note": "In all, the deposit lists about 59,000 reagents; shown is an unselected part. About 1,510 of them (2.6%) count as active. 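Calls use total luciferase alone and ignore viability, so some active siRNAs may act by altering cell number.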 Unmarked entries are inactive. The numbers tell different reagents against one gene apart. Further read-outs or replicates are left out here."}
{"Gene": "IGFBP2", "reagent": 1, "total luciferase, z-score": -0.0118, "total luciferase, % of control": 81.7}
{"Gene": "IGFBP2", "reagent": 2, "total luciferase, z-score": 0.382, "total luciferase, % of control": 89.5}
{"Gene": "IGFBP2", "reagent": 3, "total luciferase, z-score": 0.08, "total luciferase, % of control": 83.5}
{"Gene": "TARM1", "reagent": 1, "total luciferase, z-score": -2.16, "total luciferase, % of control": 38.9}
{"Gene": "TARM1", "reagent": 2, "total luciferase, z-score": 0.838, "total luciferase, % of control": 98.5}
{"Gene": "TARM1", "reagent": 3, "total luciferase, z-score": -1.6, "total luciferase, % of control": 50.1}
{"Gene": "MPI", "reagent": 1, "total luciferase, z-score": 0.3, "total luciferase, % of control": 87.9}
{"Gene": "MPI", "reagent": 2, "total luciferase, z-score": "3.13 (active)", "total luciferase, % of control": 144}
{"Gene": "MPI", "reagent": 3, "total luciferase, z-score": 1.17, "total luciferase, % of control": 105}
{"Gene": "DALRD3", "reagent": 1, "total luciferase, z-score": 1.34, "total luciferase, % of control": 108}
{"Gene": "DALRD3", "reagent": 2, "total luciferase, z-score": -0.117, "total luciferase, % of control": 79.6}
{"Gene": "DALRD3", "reagent": 3, "total luciferase, z-score": 1.05, "total luciferase, % of control": 103}
{"Gene": "SERPINA5", "reagent": 1, "total luciferase, z-score": -0.826, "total luciferase, % of control": 65.5}
{"Gene": "SERPINA5", "reagent": 2, "total luciferase, z-score": -0.765, "total luciferase, % of control": 66.7}
{"Gene": "SERPINA5", "reagent": 3, "total luciferase, z-score": -1.43, "total luciferase, % of control": 53.4}
{"Gene": "MAN1B1", "reagent": 1, "total luciferase, z-score": 0.0428, "total luciferase, % of control": 82.7}
{"Gene": "MAN1B1", "reagent": 2, "total luciferase, z-score": -0.211, "total luciferase, % of control": 77.7}
{"Gene": "MAN1B1", "reagent": 3, "total luciferase, z-score": 1.83, "total luciferase, % of control": 118}
{"Gene": "WDCP", "reagent": 1, "total luciferase, z-score": -0.552, "total luciferase, % of control": 70.9}
{"Gene": "WDCP", "reagent": 2, "total luciferase, z-score": 0.423, "total luciferase, % of control": 90.3}
{"Gene": "WDCP", "reagent": 3, "total luciferase, z-score": -0.194, "total luciferase, % of control": 78}
{"Gene": "MPV17L", "reagent": 1, "total luciferase, z-score": -0.205, "total luciferase, % of control": 77.8}
{"Gene": "MPV17L", "reagent": 2, "total luciferase, z-score": -0.373, "total luciferase, % of control": 74.5}
{"Gene": "MPV17L", "reagent": 3, "total luciferase, z-score": 1.93, "total luciferase, % of control": 120}
{"Gene": "GGT6", "reagent": 1, "total luciferase, z-score": -2.22, "total luciferase, % of control": 37.8}
{"Gene": "GGT6", "reagent": 2, "total luciferase, z-score": -0.217, "total luciferase, % of control": 77.6}
{"Gene": "GGT6", "reagent": 3, "total luciferase, z-score": 1.87, "total luciferase, % of control": 119}
{"Gene": "ZNF530", "reagent": 1, "total luciferase, z-score": 0.111, "total luciferase, % of control": 84.1}
{"Gene": "ZNF530", "reagent": 2, "total luciferase, z-score": -1.38, "total luciferase, % of control": 54.5}
{"Gene": "ZNF530", "reagent": 3, "total luciferase, z-score": -1.05, "total luciferase, % of control": 61}
{"Gene": "HSFY1", "reagent": 1, "total luciferase, z-score": -0.397, "total luciferase, % of control": 74}
{"Gene": "HSFY1", "reagent": 2, "total luciferase, z-score": -0.413, "total luciferase, % of control": 73.7}
{"Gene": "HSFY1", "reagent": 3, "total luciferase, z-score": -0.0799, "total luciferase, % of control": 80.3}

Single entries from the entries so far.
GGT6 #3, total luciferase, % of control = 119
Value of WDCP #3 under “total luciferase, z-score”: -0.194
DALRD3 #3, total luciferase, % of control → 103
